From PMC6265302, “Widespread bacterial lysine degradation proceeding via glutarate and L-2-hydroxyglutarate” (Nature Communications, 2018)
For at least one entry, the source does not settle the construct or the ends of the probe. Weaker means in comparison with the reference protein, sequence or condition of that experiment. Tags and fusion partners may be left off the protein sequences shown. At least one verdict was read from the data and is not stated in words by the source.

Molecular target: T1, CsiR (Escherichia coli BW25113 (K-12)) (UniProt P37338)
T1 sequence (looked up): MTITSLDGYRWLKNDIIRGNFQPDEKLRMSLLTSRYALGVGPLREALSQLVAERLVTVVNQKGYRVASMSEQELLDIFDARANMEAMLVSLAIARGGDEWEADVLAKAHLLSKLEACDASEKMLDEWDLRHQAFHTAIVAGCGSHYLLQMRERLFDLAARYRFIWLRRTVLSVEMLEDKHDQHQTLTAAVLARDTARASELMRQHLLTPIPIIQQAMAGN
Test: filter binding
Details: 5 mM MgCl2, Filter binding: 50 mM Tris-HCl, 100 mM KCl, 50 mM NaCl, 5 mM MgCl2, pH 7.6, 15 min, recombinant protein, residues 1-220, protein details: N-terminal 6xHis (pET28a, NdeI/XhoI sites), label: 5'-32P on MS161 strand, probe letters rebuilt from the primers and the genome

Sequence: CCCGATAAAACGGGGCAGATAATATGTTTAGTTTACTAACGGTCATTTTGCAGTGAAGCCATTTACTGTTTTTTATCGACCAGATAATCTGTTCTCTAATGTTAACTCCCCCTAACCTGTTGCTTTAGTTATTCATTTCCTGTCTCACTTTGCCTTAATACCCTACGTTAAATGTTACTAATTTGTTGCTTTTGATCACAATAAGAAAACAATATGTCGCTTTTGTGCGCATTTTTCAGAAATGTAGATATTTTTAGATTATGGCTACGAAATGAGCATCGCCATGTCACCCTACATCTCATAAGAGGATCGCTTCTGATGAATGCACTGACCGCCGTACAAAATAACGCTGTCGATTCAGGCCAGGACTAT (double strand) [csiD promoter PCR product MS161/MS162]
- binding result (1 mM alpha-ketoglutarate (lesser effect than glutarate)): binds more weakly
- binding result (1 mM glutarate): binds more weakly
- binding result (no ligand (control)): binds
